# Assay results from PubChem BioAssay AID540276 (National Center for Advancing Translational Sciences (NCATS), 2011).
# In all, about 300,000 compounds went through this assay and about 5,400 (1.8%) were called active. The inconclusive results got no clear call from the source; some entries with a clear call stand among them for comparison. Calls come from the whole dose curve; tested in HEK293 cells. Potencies beside an inconclusive call are fits to weak or partial responses and may not hold up.
# Experiment: qHTS for inhibitors of binding or entry into cells for Marburg Virus
# Conditions: Marburg virus pseudotyped entry inhibition, cell reporter; series mostly up to 37.8 µM
# Potency is the fitted concentration of half-maximal effect.
row,SMILES,Potency
1,O=C(NC(Cc1c[nH]c2ccccc12)C(=O)Nc1ccc(F)c([N+](=O)[O-])c1)c1cccs1 (configuration not stated),active: 0.794 µM
2,CC(C(=O)N(C)C1CCCCC1)N1CCC(C(N)=O)CC1 (configuration not stated),"inconclusive: 12.6 µM [activator, single point]"
3,COC1=C(C(=O)c2ccccc2)C(=O)[C@@]2(CC=C(C)C)C[C@H](C(=O)OCC(F)(F)F)C(C)(C)[C@@]1(CC=C(C)C)C2=O,"inconclusive: 2.99 µM [activator, single point]"
4,CN1CCN(c2nc(Nc3cccc(C(F)(F)F)c3)nc(N3CCOCC3)n2)CC1,active: 20.6 µM
5,Cc1cc(C)cc(NC(=O)C(c2ccccc2)N2CCN(CC(=O)NC3CC3)CC2)c1 (configuration not stated),"inconclusive: 3.55 µM [inhibitor, partial curve, poor fit]"
6,Cc1cc(S(=O)(=O)Nc2ccc(C(=O)NCC(c3ccco3)N(C)C)cc2)ccc1F (configuration not stated),inactive
7,Cc1cccc(C)c1OCc1cc(C(=O)NCC2CC2)no1,"inconclusive: 3.55 µM [inhibitor, single point]"
8,Cc1nc(Nc2nc(-c3ccccc3)cc(=O)[nH]2)nc2ccccc12,"inconclusive: 35.5 µM [inhibitor, single point]"
9,CCOC(=O)c1ccc(-c2ccc(/C=N/NC(=O)CN(c3ccccc3Cl)S(C)(=O)=O)o2)cc1,"inconclusive: 35.5 µM [inhibitor, single point]"
10,CCCCC(CC(C)O)c1n[nH]c(=S)n1-c1ccccc1 (configuration not stated),"inconclusive: 5.62 µM [activator, single point]"
11,Cn1cnnc1SCc1ccc(C(=O)N/N=C(/CCC(=O)O)c2ccc(C(C)(C)C)cc2)cc1,inactive
12,COc1cc(/C=C2\N=C(c3ccccc3)NNC2=O)cc(OC)c1OC,"inconclusive: 12.6 µM [inhibitor, partial curve]"
13,COCc1cc(C)nc(N/N=C/c2ccc(-c3ccc(Cl)cc3[N+](=O)[O-])o2)c1C#N,inactive
14,Cc1cccc(N(C(=O)c2snc(C(N)=O)c2N)C(C(=O)NCC2CCCO2)c2ccc(N(C)C)cc2)c1 (configuration not stated),"inconclusive: 0.562 µM [inhibitor, full curve, poor fit]"
15,Cc1noc(NS(=O)(=O)c2ccc(NC(=O)c3cc(S(=O)(=O)Nc4ccc(F)cc4)ccc3Cl)cc2)c1C,inactive
16,CCC(C)(C)NC(=O)Cc1ccc(Cl)cc1,inactive
17,CC(C(=O)O)N1C(=O)C2C3CC(C2C1=O)C1C(c2ccccc2)c2sc(=O)[nH]c2SC31 (configuration not stated),inactive
18,Cc1ccc(C)c(N2CCN(C(=O)c3cccn4c(=O)c5sccc5nc34)CC2)c1,active: 12.6 µM
19,COc1cccc(C(=O)c2c(C)c(CCC#N)n3ccccc23)c1OC,"inconclusive: 6.31 µM [inhibitor, single point]"
20,COc1ccc(CNC(=O)CSc2nc(-c3ccc(OC)c(OC)c3)cc(C(F)(F)F)n2)cc1,"inconclusive: 3.16 µM [activator, single point]"
21,CCC(=O)c1ccc(-c2ccccc2)cc1,"inconclusive: 8.91 µM [activator, partial curve, poor fit]"
22,COc1ccc(-c2nnc(SCC(=O)N3CCCCC3)o2)c(OC)c1,"inconclusive: 3.66 µM [activator, full curve, poor fit]"
23,CC(O)CN1C(=O)C(CC(=O)Nc2ccc(Cl)cc2)SC1=Nc1ccccc1 (configuration not stated),"inconclusive: 35.5 µM [inhibitor, single point]"

row,SMILES,Potency
1,COc1ccc(Nc2cc(C)c3ccccc3n2)cc1,"inconclusive: 22.4 µM [inhibitor, single point]"
2,O=C(Nc1ccc(F)cc1F)Nc1csc2ccccc12,"inconclusive: 35.5 µM [inhibitor, single point]"
3,Cc1ccc2nc(CSc3nc(C)ccc3C#N)[nH]c2c1,active: 2.31 µM
4,CCCCCCCCNC(=O)c1cccnc1SCC(=O)Nc1ccc(OC)cc1OC,"inconclusive: 1.26 µM [activator, single point]"
5,COc1cccc(-n2c(SCC(=O)NCCc3ccccc3)nnc2-c2ccoc2C)c1,"inconclusive: 28.2 µM [inhibitor, partial curve, poor fit]"
6,COc1ccc(O[C@H]2C=C[C@@H](c3ccccc3)O[C@@H]2CO/N=C2\c3cc(OC)ccc3O[C@H](c3cccc(OC)c3)[C@H]2O)cc1,"inconclusive: 0.0133 µM [inhibitor, full curve, poor fit]"
7,COC(=O)c1nc(-c2ccccc2)oc1N1CCOCC1,"inconclusive: 6.31 µM [inhibitor, full curve, poor fit]"
8,CCC1(c2ccc(Cl)cc2)NC(=O)N(Cc2ccc(C(=O)OC)cc2)C1=O (configuration not stated),active: 8.91 µM
9,CC(C)(C)c1ccc(/C=C2/SC(N3CCCC3)=NC2=O)cc1,"inconclusive: 35.5 µM [inhibitor, single point]"
10,CN1C2CCC1CC(NS(=O)(=O)c1ccc(C#N)cc1)C2 (configuration not stated),inactive
11,Cc1ccc(N2CCN(CC(O)COC3CCCCC3)CC2)cc1 (configuration not stated),"inconclusive: 1.26 µM [activator, single point]"
12,O=C(/C=C/c1ccccc1[N+](=O)[O-])NCc1ccccc1Cl,"inconclusive: 2 µM [activator, partial curve, poor fit]"
13,COc1ccccc1N1CCN(c2ccc(-c3ccccc3)nn2)CC1,active: 1.58 µM
14,COc1ccc(C2=NCC(CSc3nnnn3C)S2)cc1 (configuration not stated),"inconclusive: 35.5 µM [inhibitor, single point]"
15,CC(C)OC(=O)/C(=C\c1cccc2ccccc12)NC(=O)c1ccccc1,"inconclusive: 0.562 µM [inhibitor, full curve, poor fit]"
16,Cc1cc(C)cc(OCc2nc3ncc(Br)cc3[nH]2)c1,"inconclusive: 3.16 µM [inhibitor, partial curve]"
17,O=C(Nc1cccnc1)c1cc(F)cc(F)c1,"inconclusive: 5.62 µM [inhibitor, single point]"
18,CCN(CC)S(=O)(=O)c1cc(NC(=O)CSCc2c(C)noc2C)ccc1C,"inconclusive: 22.4 µM [inhibitor, single point]"
19,Cc1cc(N/N=C/c2ccc(Cl)cc2Cl)nc(NCc2ccccc2)n1,"inconclusive: 8.91 µM [inhibitor, partial curve, poor fit]"
20,Cc1ccc(OCCC(=O)N(CCC(C)C)c2c(N)n(Cc3ccccc3)c(=O)[nH]c2=O)cc1,inactive
21,C/C(=N\NC(=O)c1cc2ccccc2cc1O)c1ccc2c(c1)OCO2,inactive
22,COc1cc(-c2nnc(NC(=O)c3ccco3)o2)cc(OC)c1OC,inactive
23,COc1ccccc1N1CCN(C(=O)/C=C/c2ccc3c(c2)OCO3)CC1,inactive

# An excerpt of these results, with tabs.
row	SMILES	Potency
7	COC(=O)c1nc(-c2ccccc2)oc1N1CCOCC1	inconclusive: 6.31 µM [inhibitor, full curve, poor fit]
8	CCC1(c2ccc(Cl)cc2)NC(=O)N(Cc2ccc(C(=O)OC)cc2)C1=O (configuration not stated)	active: 8.91 µM
9	CC(C)(C)c1ccc(/C=C2/SC(N3CCCC3)=NC2=O)cc1	inconclusive: 35.5 µM [inhibitor, single point]

# Next compounds.

row,SMILES,Potency
1,Cc1ccc(/C(N)=N/OC(=O)c2cccc(Cn3cc(C(F)(F)F)ccc3=O)c2)cc1,"inconclusive: 35.5 µM [inhibitor, single point]"
2,O=C(Cn1ncc2c3ccccc3n(Cc3cccc(Cl)c3)c2c1=O)NCc1cccs1,inactive
3,COc1ccc(CC(=O)OCC(=O)N2N=C(c3ccccc3)CC2c2ccc(OC)cc2)cc1 (configuration not stated),"inconclusive: 12.6 µM [inhibitor, single point]"
4,O=C(CSc1nc2c(oc3ccccc32)c(=O)n1Cc1ccco1)Nc1ccccc1Cl,inactive
5,COc1cccc([C@H]2Oc3ccc(OC)cc3C(=NO[C@@H](C)c3cc(-c4c(C)cc(C)cc4C)no3)[C@H]2O)c1,"inconclusive: 0.299 µM [activator, partial curve, poor fit]"
6,c1ccc(CN2CCN(C3=Nc4cccc5cccc3c45)CC2)cc1,"inconclusive: 35.5 µM [inhibitor, single point]"
7,FC(F)(F)c1cc(-c2ccccc2)nc(NC2CCCC2)n1,"inconclusive: 16.4 µM [inhibitor, partial curve, poor fit]"
8,Cc1ccc(C(=O)NN2C(=O)/C(=C/c3cn(C)c4ccccc34)SC2=S)cc1,inactive
9,CCN(Cc1ccccc1)S(=O)(=O)c1ccc(C(=O)N(CCCN(C)C)c2nc3cc(C)cc(C)c3s2)cc1,active: 10 µM
10,CC1C(=O)C(C)C(c2ccccc2)N(N=O)C1c1ccccc1 (configuration not stated),"inconclusive: 6.31 µM [inhibitor, single point]"
11,O=[N+]([O-])c1ccc(-c2csc3[n+]2CCS3)cc1,inactive
12,Cc1ccc(C)c(C(=O)CN2C(=O)CCC2=O)c1,inactive
13,c1ccc(OCCCCN2CCCCC2)cc1,inactive
14,O=C(Nc1ccc2c(c1)OCO2)N1CCN(c2ncccn2)CC1,"inconclusive: 20.6 µM [activator, single point]"
15,CCCCCc1nc(N)c(C#N)c(-c2ccco2)c1CCCC,"inconclusive: 35.5 µM [inhibitor, single point]"
16,Cc1ccc(S(=O)(=O)Nc2ccc(F)cc2)cc1C(=O)N1CCOCC1,"inconclusive: 6.31 µM [inhibitor, partial curve, poor fit]"
17,Cc1ccccc1OCCC(=O)OCC(=O)Nc1cc(S(=O)(=O)N2CCOCC2)ccc1Cl,inactive
18,Cc1onc(-c2c(Cl)cccc2Cl)c1C(=O)N1CCN(Cc2ccccc2)CC1,"inconclusive: 11.2 µM [inhibitor, single point]"
19,CC12COC3(C(=O)Nc4ccc(Cl)cn4)CC1CCC32C (configuration not stated),"inconclusive: 35.5 µM [inhibitor, single point]"
20,O=C(CN1C(=O)CSc2ccc(S(=O)(=O)N3CCCCCC3)cc21)NCCc1ccccc1,"inconclusive: 20 µM [inhibitor, partial curve, poor fit]"
21,O=C(c1cc(S(=O)(=O)N2CCN(c3ccccc3)CC2)ccc1Cl)N1CCCC(C(F)(F)F)C1 (configuration not stated),"inconclusive: 5.62 µM [inhibitor, full curve]"

# 2 entries picked at random from the list so far:
row,SMILES,Potency
3,COC1=C(C(=O)c2ccccc2)C(=O)[C@@]2(CC=C(C)C)C[C@H](C(=O)OCC(F)(F)F)C(C)(C)[C@@]1(CC=C(C)C)C2=O,"inconclusive: 2.99 µM [activator, single point]"
11,Cc1ccc(N2CCN(CC(O)COC3CCCCC3)CC2)cc1 (configuration not stated),"inconclusive: 1.26 µM [activator, single point]"
